From patent US8629174B2, “Unifying mechanism and methods to prevent cancer and neurodegenerative diseases” (Prevention L.L.C., priority 2002, dated 2014)
For at least one compound, name, drawing or mass did not settle the structure. Some entries share one result that the patent states for a list of compounds.

Assays:
mammary tissue DNA = experiment: DNA adducts in rat mammary gland after intramammillary injection; format: in vivo, female ACI rats; details: 200 nmol/gland at four teats, 1 h
H-ras gene = experiment: H-ras mutation spectra in treated mouse skin (PCR, cloning, sequencing, with or without TDG treatment); format: in vivo; details: 200 nmol
Protocol: Evidence in support of this was obtained from a comparative study of mutations in the mouse skin H-ras gene induced by 200 nmol of DB[a,l]P or 200 nmol of anti-DB[a,l]P-11,12-dihydrodiol-13,14-epoxide (anti-DB[a,l]PDE). Unlike DB[a,l]P, anti-DB[a,l]PDE forms 97% stable adducts and 3% depurinating adducts in DNA. In these experiments, the types of mutations that are induced in the early preneoplastic times was identified (12 h to 9 days after treatment) and then analyzed whether these mutations were induced as a result of error-prone repair (FIG. 4). The mutations were identified by PCR amplifying a segment of the H-ras gene from DNA extracted from mouse skin treated with one of the carcinogens, cloning the PCR products in a plasmid, isolating individual subclones and sequencing the H-ras inserts to identify mutations. (Chakravarti D., et al., Mutation Res., 456, 17-32 (2000); Cavalieri E. L. and Rogan E. G., Mechanisms of tumor initiation by polycyclic aromatic hydrocarbons in mammals. In: The Handbook of Environmental Chemistry: PAHs and Related Compounds, 3J, 81-117, Neilson A. H. (ed.), Springer, Heidelberg, Germany (1998).)
In this technique, G.T heteroduplexes in skin DNA are converted to G.apyrimidinic sites by treatment with T.G-DNA glycosylase (TDG) (FIG. 5). (Chakravarti D., et al., Mutation Res., 456, 17-32 (2000).)
Since abasic site-containing DNA molecules are refractory to PCR amplification, the conversion of G.T heteroduplexes into G. apyrimidinic sites makes H-ras molecules containing these heteroduplexes unamplifiable. […] As a result, PCR amplification of the H-ras gene from TDG-treated skin DNA, followed by cloning the PCR product and isolating and determining the sequence of individual subclones, causes a specific, drastic reduction of A to G mutations in the mutation spectra. In addition, the preferential PCR amplification artificially enriches low-abundance mutations that are observed only in TDG-treated spectra.
Following the entry of skin cells into S-phase, however, the G.T heteroduplexes are converted into G.C and A.T base pairs by one round of replication. […] Thus, the specific reduction of A to G mutations in the mutation spectra by the TDG-PCR procedure characterizes these mutations as G.T heteroduplexes. […] Therefore, A to G mutations remained as G.T heteroduplexes until one day after DB[a,l]P treatment of the skin; beyond which they were present as G.C and A.T mutations, presumably by replication. Flow cytometric analysis of epidermal keratinocytes isolated from DB[a,l]P-treated mouse skin confirms that cells begin to enter the S-phase one day after the treatment. (Chakravarti D., et al., Mutation Res., 456, 17-32 (2000); Chakravarti et al., unpublished results). […]

| Compound | N3Ade and N7Gua adducts from both 4-OHE2 and 4-OHE1 (mammary tissue DNA) | A/T to G/C mutations in H-ras inserts (H-ras gene; 6 h, TDG treatment) [in 33] | A/T to G/C mutations in H-ras inserts (H-ras gene; 6 h, without TDG) [in 29] | A/T to G/C mutations in plasmids (H-ras gene; 12 h, TDG treatment) [in 41] | A/T to G/C mutations in H-ras inserts (H-ras gene; 12 h, without TDG) [in 30] |
| --- | --- | --- | --- | --- | --- |
| C[C@]12CC[C@@H]3c4ccc(O)c(O)c4CC[C@H]3[C@@H]1CC[C@@H]2O [4-OHE2, 4-hydroxyestradiol] | 100-300 μmol/mol DNA-P |  |  |  |  |
| C[C@]12CC[C@@H]3C4=C(CC[C@H]3[C@@H]1CC[C@@H]2O)C(=O)C(=O)C=C4 [E2-3,4-Q] |  | 0 | 5 | 0 | 4 |
